Test results reported in patent US10045939B2, “Unit doses, aerosols, kits, and methods for treating heart conditions by pulmonary administration” (InCarda Therapeutics, Inc., priority 2009, dated 2018).
Read-outs that look alike come from different tables or passages of the source.

Type: in vivo, human
Conditions: for Aftertaste: 5 minutes after inhalation; for Taste: 2 volunteers
Procedure: The following solution strengths were prepared for taste evaluation: (1) diltiazem hydrochloride—50 mg/ml solution in distilled water; and (2) flecainide acetate—30 mg/ml solution in distilled water.
The Aeroneb®GO device was used because it is a simple-to-use device developed specifically for patients who require respiratory therapy in and away from the home. The device can be used by patients of all ages (infant through adult) and aerosolizes solutions intended for inhalation. Aeroneb® Go works with either an AC wall controller or a battery pack, and can be cleaned with soap and water. More details about this device can be obtained at www.aerogen.com.
Number of subjects: 2 healthy male volunteers
Water was poured into the nebulizer cup, and the nebulizer was turned on. The visible cloud of aerosol generated when the nebulizer was turned on was treated as a qualitative aerosol standard.
About 1 ml of the 30 mg/ml solution was poured into the cup of the nebulizer. The nebulizer was turned on and the resulting aerosol was similar to but not as dense as the aerosol formed with the water alone.
The nebulizer was then placed in the mouth and switched on. Deep lung inhalation was performed through the nebulizer. About 40 μl (˜1.2 mg of flecainide acetate) of the test solution was inhaled. The inhaled dose was sub-therapeutic in nature as it was much less than the regular 100 mg administered as tablets. Flecainide acetate is also available as an IV injection in Europe as 10 mg/ml strength in 15 ml ampoules.
About 1 ml of the 50 mg/ml solution was poured into the cup of the nebulizer. The nebulizer was turned on and the resulting aerosol was similar to but not as dense as the aerosol formed with the water alone.
The nebulizer was then placed in the mouth and a switched on. Deep lung inhalation was performed through the nebulizer. About 40 μl (˜2 mg of diltiazem hydrochloride) of the test solution was inhaled. The inhaled dose was sub-therapeutic in nature as it was much less than the IV injection marketed in the U.S. as 5 mg/ml in 5 ml vials.

## COc1ccc([C@@H]2Sc3ccccc3N(CCN(C)C)C(=O)[C@@H]2OC(C)=O)cc1.Cl [diltiazem, diltiazem hydrochloride]
About 40 μl of 50 mg/ml solution (~2 mg)
  Aftertaste: none to little aftertaste
About 40 μl of 50 mg/ml solution (~2 mg) inhaled by nebulizer
  Taste: Mildly bitter taste felt in the back of the tongue

## O=C(NCC1CCCCN1)c1cc(OCC(F)(F)F)ccc1OCC(F)(F)F (stereo not shown) [flecainide, flecainide acetate]
About 40 μl of 30 mg/ml solution (~1.2 mg)
  Aftertaste: none to little aftertaste
About 40 μl of 30 mg/ml solution (~1.2 mg) inhaled by nebulizer
  Taste: Mildly bitter taste felt in the back of the tongue
